# Assay results as given in the supplement of paper PMC8728848.
# The other results are listed elsewhere or left out.
# How the values were obtained:
# Test in all cases: glycan array binding signal (z-score within array); higher = stronger binding
# Conditions in all cases: glycan notation: IUPAC condensed, linker removed
# Gal(a1-2)Gal = test system: Gal(a1-2)Gal
# Procedure, shortened: (§1)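 Arrays were curated from the Consortium for Functional Glycomics database, 3228 in total, and kept only where the protein sequence was available. Binding is expressed as a within-array Z-score. This score was averaged across arrays of the same protein sequence at different concentrations or buffers and across linkers, and negative values can be read as non-binding.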
# [1] = test system: Gal(a1-3)Gal(b1-3)GlcNAc(b1-2)Man(a1-3)[Gal(a1-3)Gal(b1-3)GlcNAc(b1-2)Man(a1-6)]Man(b1-4)GlcNAc(b1-4)GlcNAc
# Procedure, shortened: as §1
# [2] = test system: Gal(a1-3)Gal(b1-3)GlcNAc(b1-3)GalNAc
# Procedure, shortened: as §1
# [3] = test system: Gal(a1-3)Gal(b1-3)GlcNAc(b1-6)GalNAc
# Procedure, shortened: as §1
# Gal(a1-3)Gal(b1-3)GlcNAc = test system: Gal(a1-3)Gal(b1-3)GlcNAc
# Procedure, shortened: as §1
# [4] = test system: Gal(a1-3)Gal(b1-3)[Fuc(a1-4)]GlcNAc(b1-2)Man(a1-3)[Gal(a1-3)Gal(b1-3)[Fuc(a1-4)]GlcNAc(b1-2)Man(a1-6)]Man(b1-4)GlcNAc(b1-4)GlcNAc
# Procedure, shortened: as §1
# [5] = test system: Gal(a1-3)Gal(b1-4)GlcNAc(b1-3)GalNAc
# Procedure, shortened: as §1
# [6] = test system: Gal(a1-3)Gal(b1-4)GlcNAc(b1-6)GalNAc
# Procedure, shortened: as §1
# Gal(a1-3)Gal(b1-4)GlcNAc = test system: Gal(a1-3)Gal(b1-4)GlcNAc
# Procedure, shortened: as §1
# Gal(a1-3)Gal(b1-4)Glc = test system: Gal(a1-3)Gal(b1-4)Glc
# Procedure, shortened: as §1
# [7] = test system: Gal(a1-3)Gal(b1-4)[Fuc(a1-3)]GlcNAc(b1-2)Man(a1-3)[Gal(a1-3)Gal(b1-4)[Fuc(a1-3)]GlcNAc(b1-2)Man(a1-6)]Man(b1-4)GlcNAc(b1-4)GlcNAc
# Procedure, shortened: as §1
# [8] = test system: Gal(a1-3)Gal(b1-4)[Fuc(a1-3)]GlcNAc
# Procedure, shortened: as §1
# Gal(a1-3)GalNAc = test system: Gal(a1-3)GalNAc
# Procedure, shortened: as §1
# Gal(a1-3)Gal = test system: Gal(a1-3)Gal
# Procedure, shortened: as §1
# [9] = test system: Gal(a1-3)[Gal(a1-4)]Gal(b1-4)GlcNAc
# Procedure, shortened: as §1
# [10] = test system: Gal(a1-4)Gal(b1-3)GlcNAc(b1-2)Man(a1-3)[Gal(a1-4)Gal(b1-3)GlcNAc(b1-2)Man(a1-6)]Man(b1-4)GlcNAc(b1-4)GlcNAc
# Procedure, shortened: as §1
# [11] = test system: Gal(a1-4)Gal(b1-4)GlcNAc(b1-2)Man(a1-3)[Gal(a1-4)Gal(b1-4)GlcNAc(b1-2)Man(a1-6)]Man(b1-4)GlcNAc(b1-4)GlcNAc
# Procedure, shortened: as §1
# [12] = test system: Gal(a1-4)Gal(b1-4)GlcNAc(b1-3)Gal(b1-4)Glc
# Procedure, shortened: as §1
# Gal(a1-4)Gal(b1-4)GlcNAc = test system: Gal(a1-4)Gal(b1-4)GlcNAc
# Procedure, shortened: as §1
# Gal(a1-4)Gal(b1-4)Glc = test system: Gal(a1-4)Gal(b1-4)Glc
# Procedure, shortened: as §1
# Gal(a1-4)GlcNAc = test system: Gal(a1-4)GlcNAc
# Procedure, shortened: as §1
# Gal(a1-6)Glc = test system: Gal(a1-6)Glc
# Procedure, shortened: as §1
# Gal(b1-2)Gal = test system: Gal(b1-2)Gal
# Procedure, shortened: as §1
# [13] = test system: Gal(b1-3)Gal(b1-4)GlcNAc(b1-2)Man(a1-3)[Gal(b1-3)Gal(b1-4)GlcNAc(b1-2)Man(a1-6)]Man(b1-4)GlcNAc(b1-4)GlcNAc
# Procedure, shortened: as §1
# Gal(b1-3)Gal(b1-4)GlcNAc = test system: Gal(b1-3)Gal(b1-4)GlcNAc
# Procedure, shortened: as §1
# [14] = test system: Gal(b1-3)GalNAc(a1-3)[Fuc(a1-2)]Gal(b1-4)GlcNAc
# Procedure, shortened: as §1
# [15] = test system: Gal(b1-3)GalNAc(a1-3)[Fuc(a1-2)]Gal(b1-4)Glc
# Procedure, shortened: as §1
# [16] = test system: Gal(b1-3)GalNAc(b1-3)Gal(a1-4)Gal(b1-4)Glc
# Procedure, shortened: as §1
# [17] = test system: Gal(b1-3)GalNAc(b1-4)Gal(b1-4)Glc
# Procedure, shortened: as §1
# [18] = test system: Gal(b1-3)GalNAc(b1-4)[Neu5Ac(a2-3)]Gal(b1-4)Glc
# Procedure, shortened: as §1
# Gal(b1-3)GalNAc = test system: Gal(b1-3)GalNAc
# Procedure, shortened: as §1
# Gal(b1-3)Gal = test system: Gal(b1-3)Gal
# Procedure, shortened: as §1
# [19] = test system: Gal(b1-3)GlcNAc(a1-3)Gal(b1-4)GlcNAc
# Procedure, shortened: as §1
# [20] = test system: Gal(b1-3)GlcNAc(a1-6)Gal(b1-4)GlcNAc
# Procedure, shortened: as §1
# [21] = test system: Gal(b1-3)GlcNAc(b1-2)Man(a1-3)[Gal(b1-3)GlcNAc(b1-2)Man(a1-6)]Man(b1-4)GlcNAc(b1-4)GlcNAc
# Procedure, shortened: as §1
# [22] = test system: Gal(b1-3)GlcNAc(b1-2)Man(a1-3)[Gal(b1-3)GlcNAc(b1-2)Man(a1-6)]Man(b1-4)GlcNAc(b1-4)[Fuc(a1-6)]GlcNAc
# Procedure, shortened: as §1
# [23] = test system: Gal(b1-3)GlcNAc(b1-2)Man(a1-3)[GlcNAc(b1-4)][Gal(b1-3)GlcNAc(b1-2)Man(a1-6)]Man(b1-4)GlcNAc(b1-4)GlcNAc
# Procedure, shortened: as §1
# [24] = test system: Gal(b1-3)GlcNAc(b1-2)[Gal(b1-3)GlcNAc(b1-6)]Man(a1-6)[Gal(b1-3)GlcNAc(b1-2)Man(a1-3)]Man(b1-4)GlcNAc(b1-4)GlcNAc
# Procedure, shortened: as §1
# [25] = test system: Gal(b1-3)GlcNAc(b1-3)Gal(b1-3)GlcNAc
# Procedure, shortened: as §1
# [26] = test system: Gal(b1-3)GlcNAc(b1-3)Gal(b1-4)GlcNAc(b1-6)[Gal(b1-3)GlcNAc(b1-3)]Gal(b1-4)Glc
# Procedure, shortened: as §1
# [27] = test system: Gal(b1-3)GlcNAc(b1-3)Gal(b1-4)GlcNAc
# Procedure, shortened: as §1
# [28] = test system: Gal(b1-3)GlcNAc(b1-3)Gal(b1-4)Glc
# Procedure, shortened: as §1
# [29] = test system: Gal(b1-3)GlcNAc(b1-3)Gal(b1-4)[Fuc(a1-3)]GlcNAc(b1-6)[Gal(b1-3)GlcNAc(b1-3)]Gal(b1-4)Glc
# Procedure, shortened: as §1
# [30] = test system: Gal(b1-3)GlcNAc(b1-3)GalNAc
# Procedure, shortened: as §1
# [31] = test system: Gal(b1-3)GlcNAc(b1-6)Gal(b1-4)GlcNAc
# Procedure, shortened: as §1
# [32] = test system: Gal(b1-3)GlcNAc(b1-6)GalNAc
# Procedure, shortened: as §1
# Gal(b1-3)GlcNAc6S = test system: Gal(b1-3)GlcNAc6S
# Procedure, shortened: as §1
# Gal(b1-3)GlcNAc = test system: Gal(b1-3)GlcNAc
# Procedure, shortened: as §1
# [33] = test system: Gal(b1-3)[Fuc(a1-4)]GlcNAc(b1-2)Man(a1-3)[Gal(b1-3)[Fuc(a1-4)]GlcNAc(b1-2)Man(a1-6)]Man(b1-4)GlcNAc(b1-4)[Fuc(a1-6)]GlcNAc
# Procedure, shortened: as §1
# [34] = test system: Gal(b1-3)[Fuc(a1-4)]GlcNAc(b1-3)Gal(b1-3)[Fuc(a1-4)]GlcNAc
# Procedure, shortened: as §1
# [35] = test system: Gal(b1-3)[Fuc(a1-4)]GlcNAc(b1-3)Gal(b1-4)GlcNAc
# Procedure, shortened: as §1
# [36] = test system: Gal(b1-3)[Fuc(a1-4)]GlcNAc(b1-3)Gal(b1-4)[Fuc(a1-3)]GlcNAc
# Procedure, shortened: as §1
substance,measurement,setting,value
"Wza (Escherichia coli), P0A930",glycan array binding signal (z-score),Gal(a1-2)Gal,0.653
same,glycan array binding signal (z-score),[1],0.652
same,glycan array binding signal (z-score),[2],1.33
same,glycan array binding signal (z-score),[3],-0.619
same,glycan array binding signal (z-score),Gal(a1-3)Gal(b1-3)GlcNAc,-0.725
same,glycan array binding signal (z-score),[4],0.562
same,glycan array binding signal (z-score),[5],-0.853
same,glycan array binding signal (z-score),[6],3.84
same,glycan array binding signal (z-score),Gal(a1-3)Gal(b1-4)GlcNAc,-0.445
same,glycan array binding signal (z-score),Gal(a1-3)Gal(b1-4)Glc,0.4
same,glycan array binding signal (z-score),[7],-0.24
same,glycan array binding signal (z-score),[8],0.137
same,glycan array binding signal (z-score),Gal(a1-3)GalNAc,0.468
same,glycan array binding signal (z-score),Gal(a1-3)Gal,0.115
same,glycan array binding signal (z-score),[9],-0.948
same,glycan array binding signal (z-score),[10],-1.07
same,glycan array binding signal (z-score),[11],0.557
same,glycan array binding signal (z-score),[12],-0.087
same,glycan array binding signal (z-score),Gal(a1-4)Gal(b1-4)GlcNAc,-0.729
same,glycan array binding signal (z-score),Gal(a1-4)Gal(b1-4)Glc,0.25
same,glycan array binding signal (z-score),Gal(a1-4)GlcNAc,-1.48
same,glycan array binding signal (z-score),Gal(a1-6)Glc,3.12
same,glycan array binding signal (z-score),Gal(b1-2)Gal,-1.24
same,glycan array binding signal (z-score),[13],1.54
same,glycan array binding signal (z-score),Gal(b1-3)Gal(b1-4)GlcNAc,3.02
same,glycan array binding signal (z-score),[14],0.052
same,glycan array binding signal (z-score),[15],0.824
same,glycan array binding signal (z-score),[16],-0.128
same,glycan array binding signal (z-score),[17],-0.076
same,glycan array binding signal (z-score),[18],0.983
same,glycan array binding signal (z-score),Gal(b1-3)GalNAc,0.276
same,glycan array binding signal (z-score),Gal(b1-3)Gal,0.729
same,glycan array binding signal (z-score),[19],-0.292
same,glycan array binding signal (z-score),[20],-0.889
same,glycan array binding signal (z-score),[21],0.432
same,glycan array binding signal (z-score),[22],-0.217
same,glycan array binding signal (z-score),[23],0.593
same,glycan array binding signal (z-score),[24],1.4
same,glycan array binding signal (z-score),[25],-0.652
same,glycan array binding signal (z-score),[26],-1
same,glycan array binding signal (z-score),[27],0.348
same,glycan array binding signal (z-score),[28],-0.658
same,glycan array binding signal (z-score),[29],-0.476
same,glycan array binding signal (z-score),[30],0.041
same,glycan array binding signal (z-score),[31],-1.07
same,glycan array binding signal (z-score),[32],-0.947
same,glycan array binding signal (z-score),Gal(b1-3)GlcNAc6S,-0.27
same,glycan array binding signal (z-score),Gal(b1-3)GlcNAc,0.026
same,glycan array binding signal (z-score),[33],-0.493
same,glycan array binding signal (z-score),[34],0.438
same,glycan array binding signal (z-score),[35],1.14
same,glycan array binding signal (z-score),[36],1.93

# Rewritten as tab-separated lines: part of the list above.
substance	measurement	setting	value
Wza (Escherichia coli), P0A930	glycan array binding signal (z-score)	Gal(a1-2)Gal	0.653
same	glycan array binding signal (z-score)	[1]	0.652
same	glycan array binding signal (z-score)	[10]	-1.07
same	glycan array binding signal (z-score)	Gal(a1-4)Gal(b1-4)GlcNAc	-0.729
same	glycan array binding signal (z-score)	Gal(a1-4)GlcNAc	-1.48
same	glycan array binding signal (z-score)	Gal(b1-3)Gal(b1-4)GlcNAc	3.02
same	glycan array binding signal (z-score)	[18]	0.983
same	glycan array binding signal (z-score)	Gal(b1-3)GalNAc	0.276
same	glycan array binding signal (z-score)	Gal(b1-3)Gal	0.729
same	glycan array binding signal (z-score)	[27]	0.348
same	glycan array binding signal (z-score)	[33]	-0.493
